PMC9107765
Results are given in words; binding and its absence hold for the method and conditions named. Binding seen in cells or lysates may run through a third protein. A yes stands for co-enrichment or nearness to the bait. Other partners may have been found.

Sequences of proteins named here, by UniProt entry; tags and fusion partners are left off.
UniProt Q9H0F5: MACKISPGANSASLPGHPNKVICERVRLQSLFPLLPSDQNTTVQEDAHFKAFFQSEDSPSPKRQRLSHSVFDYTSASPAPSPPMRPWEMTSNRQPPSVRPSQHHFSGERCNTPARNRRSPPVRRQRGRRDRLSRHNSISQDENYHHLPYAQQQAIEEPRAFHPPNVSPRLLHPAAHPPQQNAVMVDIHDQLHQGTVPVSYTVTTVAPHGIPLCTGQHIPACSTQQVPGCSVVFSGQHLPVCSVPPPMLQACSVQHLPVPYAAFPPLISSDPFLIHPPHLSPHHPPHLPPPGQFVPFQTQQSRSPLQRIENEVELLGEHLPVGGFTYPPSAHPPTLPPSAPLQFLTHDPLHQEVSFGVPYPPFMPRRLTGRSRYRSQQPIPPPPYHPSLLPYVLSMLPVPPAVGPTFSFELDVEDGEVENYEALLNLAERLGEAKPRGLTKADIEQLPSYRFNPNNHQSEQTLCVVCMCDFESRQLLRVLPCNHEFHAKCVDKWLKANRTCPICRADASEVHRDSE
UniProt O43707: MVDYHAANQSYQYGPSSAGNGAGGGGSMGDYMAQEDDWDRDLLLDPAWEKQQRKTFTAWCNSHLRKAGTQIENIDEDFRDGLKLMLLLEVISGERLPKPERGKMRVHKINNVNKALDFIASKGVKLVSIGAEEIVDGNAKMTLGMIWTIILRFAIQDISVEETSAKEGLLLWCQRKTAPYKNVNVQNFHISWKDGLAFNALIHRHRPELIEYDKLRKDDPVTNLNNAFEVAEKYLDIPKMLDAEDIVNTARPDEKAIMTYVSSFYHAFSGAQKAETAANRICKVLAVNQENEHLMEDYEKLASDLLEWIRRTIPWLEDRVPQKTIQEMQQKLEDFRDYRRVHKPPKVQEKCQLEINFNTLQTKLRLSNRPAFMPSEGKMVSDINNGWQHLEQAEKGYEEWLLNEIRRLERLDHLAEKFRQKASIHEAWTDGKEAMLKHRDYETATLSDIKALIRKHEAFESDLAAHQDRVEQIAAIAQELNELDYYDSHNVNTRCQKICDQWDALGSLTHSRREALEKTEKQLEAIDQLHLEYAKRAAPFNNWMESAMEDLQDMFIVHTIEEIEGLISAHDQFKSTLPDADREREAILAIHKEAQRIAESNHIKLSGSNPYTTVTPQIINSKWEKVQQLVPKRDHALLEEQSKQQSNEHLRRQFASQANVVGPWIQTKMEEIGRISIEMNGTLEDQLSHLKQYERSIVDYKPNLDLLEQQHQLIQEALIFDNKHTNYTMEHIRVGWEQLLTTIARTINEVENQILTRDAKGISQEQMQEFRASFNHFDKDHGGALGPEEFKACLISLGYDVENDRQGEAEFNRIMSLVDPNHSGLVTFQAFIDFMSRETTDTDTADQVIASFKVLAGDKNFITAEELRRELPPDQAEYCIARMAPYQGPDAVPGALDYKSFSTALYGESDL

Biological target: RNF38 (ring finger protein 38) (UniProt Q9H0F5)
Experiment: affinity purification with mass spectrometry; Flag-tagged RNF38 overexpressed in NPC cells (SUNE-1, CNE-2); RIPA lysate on ANTI-FLAG M2 affinity gel overnight at 4 °C, washed with TBS, eluted with 1% TFA, LC-MS/MS; compared to control cells

binding: binds
Substance: ACTN4 (Actinin Alpha 4) (from UniProt O43707 1-911)
